# The supplement of paper PMC8256030
# Values joined by “and” are separate entries in the source; they are usually repeats but may differ in a detail not shown here. Identical values can stand only once. Counter-ions that a name gives are not always drawn. The list shows a part of the results. Single values are uncertain here, since repeats match poorly.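 HEK293T cells were given each compound shortly before transfection with a reporter in which red mCherry is followed by the SARS-CoV-2 frameshift element and then GFP in the −1 frame, so GFP appears only after frameshifting.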
# Tested on: HEK293T
# Experiment: percent viability (nuclei count) relative to control; higher = more viable cells
# Conditions: 10 µM; 24 h
row,SMILES,percent viability
1,C=C[C@@]1(C)CC(=O)[C@]2(O)[C@@]3(C)[C@@H](O)CCC(C)(C)[C@@H]3[C@H](O)[C@H](OC(C)=O)[C@@]2(C)O1 [colforsin],128%
2,CC(Oc1c(Cl)cccc1Cl)C1=NCCN1 (stereo not given) [Lofexidine·HCl],46.6%
3,C=C[C@]1(C)C[C@@H](OC(=O)CSCCN(CC)CC)[C@]2(C)[C@H](C)CC[C@]3(CCC(=O)[C@H]32)[C@@H](C)[C@@H]1O [tiamulin],89.6%
4,COc1ccc(-n2nc(CCC(=O)N(C)O)cc2-c2ccc(Cl)cc2)cc1 [tepoxalin],158%
5,CCOc1ccc2ccccc2c1C(=O)N[C@@H]1C(=O)N2[C@@H]1SC(C)(C)[C@@H]2C(=O)O [nafcillin],116%
6,COC(=O)c1ccccc1O [Methyl salicylate],324%
7,N[C@@H](CC(=O)N1CCn2c(nnc2C(F)(F)F)C1)Cc1cc(F)c(F)cc1F [sitagliptin],217%
8,CN1CCC(=C2c3ccccc3CC(=O)c3sccc32)CC1 [ketotifen],229% and 185%
9,CCCCCCCCCCCCCCCC(=O)NCCC[N+](C)(C)CC(=O)[O-] [pendecamaine],208%
10,CN(C)CCCn1c(=O)c2ccccc2c2ccccc21 [fantridone],167%
11,CCN(CC)CCOc1ccc(C(O)(Cc2ccc(Cl)cc2)c2ccc(C)cc2)cc1 (stereo not given) [triparanol],261%
12,CC[C@]12CCCN3CCc4c(n(c5ccccc45)[C@@](O)(C(=O)OC)C1)[C@@H]32 [vincamine],17.7%
13,C=C(NC(=O)C(=C)NC(=O)c1csc(C2=NC3c4csc(n4)C4NC(=O)c5csc(n5)C(C(C)(O)C(C)O)NC(=O)C5CSC(=N5)/C(=C\C)NC(=O)C(C(C)O)NC(=O)c5csc(n5)C3(CC2)NC(=O)C(C)NC(=O)C(=C)NC(=O)C(C)NC(=O)C(C(C)CC)NC2C=Cc3c(C(C)O)cc(nc3C2O)C(=O)OC4C)n1)C(N)=O (stereo not given),155%
14,CN1C(C(=O)Nc2ccccn2)=C(O)c2ccccc2S1(=O)=O,132%
15,Cc1ncc([N+](=O)[O-])n1CC(C)O (stereo not given) [secnidazole],321% and 255%
16,CO[C@H]1/C=C/O[C@@]2(C)Oc3c(C)c(O)c4c(O)c(cc(O)c4c3C2=O)NC(=O)/C(C)=C\C=C\[C@H](C)[C@H](O)[C@@H](C)[C@@H](O)[C@@H](C)[C@H](OC(C)=O)[C@@H]1C [rifamycin],87.4%
17,CN(C)CC/C=C1/c2ccccc2COc2ccc(CC(=O)O)cc21 [Olopatadine],196%
18,COc1cc(OC)c(C(=O)CCCN2CCCC2)c(OC)c1,178%
19,CCOC(=O)[C@H](CCc1ccccc1)N[C@@H](C)C(=O)N1[C@H](C(=O)O)C[C@@H]2CCC[C@@H]21 [ramipril],154% and 179%
20,Cc1ccnc(NC(=O)C(C)c2cccc(C(=O)c3ccccc3)c2)c1 (stereo not given) [piketoprofen],192%

row,SMILES,percent viability
1,CCC[S+]([O-])c1ccc2[nH]c(NC(=O)OC)nc2c1 (stereo not given) [albendazole oxide],201%
2,CN(C)CC(c1ccc(O)cc1)C1(O)CCCCC1 (stereo not given),63.3%
3,OC[C@@H](O)[C@@H](O)[C@H](O)[C@H](O)CO [Bronchitol],340%
4,Cc1ccc(-n2[nH]c(C)c(N=Nc3cccc(-c4cccc(C(=O)O)c4)c3O)c2=O)cc1C [eltrombopag],135%
5,CCN(CC)CCOC(=O)C(c1ccccc1)C1CCCCC1 (stereo not given) [drofenine],357%
6,N[C@@H]1CCCC[C@H]1N.O=C([O-])C(=O)[O-].[Pt+2] [Eloxatin],189%
7,O=C(O)C1=C(CSc2nnnn2CS(=O)(=O)O)CS[C@@H]2[C@H](NC(=O)[C@H](O)c3ccccc3)C(=O)N12 [Monocid],185%
8,COC(=O)Nc1nc2cc(C(=O)c3cccs3)ccc2[nH]1 [nocodazole],13.1%
9,CC(=O)O[C@H]1C[C@@]2(C)[C@@H](C[C@@H](O)[C@H]3[C@@]4(C)CC[C@@H](O)[C@@H](C)[C@@H]4CC[C@@]32C)/C1=C(\CCC=C(C)C)C(=O)O [Fusidic Acid],217%
10,C[C@@H]1CCC[C@H](C)N1NC(=O)c1ccc(Cl)c(S(N)(=O)=O)c1 [clopamide],308%
11,CN1CCC[C@@H]1CCO[C@](C)(c1ccccc1)c1ccc(Cl)cc1,173%
12,COc1cc(NCCCC(C)N)c2ncccc2c1 (stereo not given) [quinocide],145%
13,NC(CO)(CO)CO [trometamol],168%
14,CCCCC[C@](C)(O)/C=C/[C@@H]1[C@@H](C/C=C\CCCC(=O)O)[C@@H](O)C[C@H]1O [carboprost],346%
15,COCCCC/C(=N\OCCN)c1ccc(C(F)(F)F)cc1,147%
16,Oc1ccc2c(c1)CC[C@H](c1ccccc1)[C@@H]2c1ccc(OCCN2CCCC2)cc1 [lasofoxifene],317%
17,COC1=C(OC)C(=O)C(CCCCCCCCCCO)=C(C)C1=O [idebenone],162% and 212%
18,CC(=O)OCC(=O)[C@@]12N=C(C)O[C@@H]1C[C@H]1[C@@H]3CCC4=CC(=O)C=C[C@]4(C)[C@H]3[C@@H](O)C[C@@]12C [deflazacort],213%
19,CC(=O)OC[C@H]1O[C@@H](n2ncc(=O)[nH]c2=O)[C@H](OC(C)=O)[C@@H]1OC(C)=O [azaribine],144%
20,CN1CCc2c(c3ccccc3n2Cc2ccccc2)C1,415%
